For test [1], the target named is T1, hnRNPAB (40LoVE) (Xenopus laevis (endogenous in oocytes)).
T1 sequence: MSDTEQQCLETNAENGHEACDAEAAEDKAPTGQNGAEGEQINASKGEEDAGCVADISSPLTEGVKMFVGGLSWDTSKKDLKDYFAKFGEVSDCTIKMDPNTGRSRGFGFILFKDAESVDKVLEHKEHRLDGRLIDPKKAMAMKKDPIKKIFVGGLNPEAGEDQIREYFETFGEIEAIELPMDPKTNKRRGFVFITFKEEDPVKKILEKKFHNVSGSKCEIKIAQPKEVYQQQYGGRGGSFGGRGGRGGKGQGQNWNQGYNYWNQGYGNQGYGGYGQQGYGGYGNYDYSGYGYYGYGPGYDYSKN
Put plainly: co-IP.

Test [2] deals with T2, Stau1 (Staufen1) (Xenopus laevis (endogenous in oocytes)) (UniProt Q6GM35).
T2 sequence: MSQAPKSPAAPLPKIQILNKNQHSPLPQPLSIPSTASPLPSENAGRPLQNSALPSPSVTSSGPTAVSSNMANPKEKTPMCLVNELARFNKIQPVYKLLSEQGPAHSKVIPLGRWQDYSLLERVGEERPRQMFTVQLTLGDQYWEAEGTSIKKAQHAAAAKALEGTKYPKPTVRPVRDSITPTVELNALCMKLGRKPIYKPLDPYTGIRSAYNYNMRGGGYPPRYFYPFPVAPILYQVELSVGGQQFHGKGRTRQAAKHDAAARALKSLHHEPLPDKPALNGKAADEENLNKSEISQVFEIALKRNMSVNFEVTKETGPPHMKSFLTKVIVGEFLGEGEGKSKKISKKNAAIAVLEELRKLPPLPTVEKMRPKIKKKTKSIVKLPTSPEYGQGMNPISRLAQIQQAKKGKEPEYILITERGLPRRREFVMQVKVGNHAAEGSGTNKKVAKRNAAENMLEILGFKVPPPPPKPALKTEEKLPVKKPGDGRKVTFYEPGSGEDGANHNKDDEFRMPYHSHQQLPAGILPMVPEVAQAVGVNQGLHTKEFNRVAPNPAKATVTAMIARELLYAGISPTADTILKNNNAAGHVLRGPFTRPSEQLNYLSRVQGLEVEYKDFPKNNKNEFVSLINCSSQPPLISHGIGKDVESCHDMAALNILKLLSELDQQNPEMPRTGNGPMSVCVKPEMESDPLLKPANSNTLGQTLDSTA
Put plainly: co-IP.

These are yes or no findings as the source states them, for the method shown. In cells and extracts the contact can be indirect. Binding can be weak; no strength is given.

“Vera (Igf2bp3) (Xenopus laevis (endogenous in oocytes))”: the binding result in test [1] and in test [2] was “binds” each time.

(Values after paper doi:10.1101/2020.05.08.084814.)
